Data: PMC9888277
Results are given in words; binding and its absence hold for the method and conditions named. Binding seen in cells or lysates may run through a third protein. Some binding calls cover weakened binding; strength is not graded here.

The chains behind the UniProt entries cited, without tags or fusion partners. Where a name states a change or a piece, a line headed by the entry shows the natural chain unless it says otherwise. A line that says so, or that is headed by a name, gives the form on record, which may keep a tag or linker.
UniProt O15037: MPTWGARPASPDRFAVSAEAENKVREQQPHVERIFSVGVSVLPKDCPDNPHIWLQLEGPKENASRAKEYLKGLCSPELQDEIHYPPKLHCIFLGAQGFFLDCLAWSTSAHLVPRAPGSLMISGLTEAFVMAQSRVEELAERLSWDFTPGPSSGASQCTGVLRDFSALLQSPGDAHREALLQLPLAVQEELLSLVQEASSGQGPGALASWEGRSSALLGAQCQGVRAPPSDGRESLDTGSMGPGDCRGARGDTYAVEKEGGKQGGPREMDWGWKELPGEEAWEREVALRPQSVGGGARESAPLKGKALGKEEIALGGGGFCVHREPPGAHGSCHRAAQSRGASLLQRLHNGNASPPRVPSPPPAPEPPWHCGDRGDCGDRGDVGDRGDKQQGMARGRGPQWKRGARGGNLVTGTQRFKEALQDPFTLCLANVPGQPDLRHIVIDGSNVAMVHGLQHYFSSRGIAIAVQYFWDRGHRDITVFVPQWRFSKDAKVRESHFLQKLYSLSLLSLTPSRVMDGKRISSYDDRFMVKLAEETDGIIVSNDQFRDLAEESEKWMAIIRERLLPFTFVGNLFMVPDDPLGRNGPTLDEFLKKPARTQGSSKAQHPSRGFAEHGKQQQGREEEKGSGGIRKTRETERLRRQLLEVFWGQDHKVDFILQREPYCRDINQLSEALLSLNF
ZAP-S (zinc finger antiviral protein, short isoform) (Q7Z2W4-2, form named): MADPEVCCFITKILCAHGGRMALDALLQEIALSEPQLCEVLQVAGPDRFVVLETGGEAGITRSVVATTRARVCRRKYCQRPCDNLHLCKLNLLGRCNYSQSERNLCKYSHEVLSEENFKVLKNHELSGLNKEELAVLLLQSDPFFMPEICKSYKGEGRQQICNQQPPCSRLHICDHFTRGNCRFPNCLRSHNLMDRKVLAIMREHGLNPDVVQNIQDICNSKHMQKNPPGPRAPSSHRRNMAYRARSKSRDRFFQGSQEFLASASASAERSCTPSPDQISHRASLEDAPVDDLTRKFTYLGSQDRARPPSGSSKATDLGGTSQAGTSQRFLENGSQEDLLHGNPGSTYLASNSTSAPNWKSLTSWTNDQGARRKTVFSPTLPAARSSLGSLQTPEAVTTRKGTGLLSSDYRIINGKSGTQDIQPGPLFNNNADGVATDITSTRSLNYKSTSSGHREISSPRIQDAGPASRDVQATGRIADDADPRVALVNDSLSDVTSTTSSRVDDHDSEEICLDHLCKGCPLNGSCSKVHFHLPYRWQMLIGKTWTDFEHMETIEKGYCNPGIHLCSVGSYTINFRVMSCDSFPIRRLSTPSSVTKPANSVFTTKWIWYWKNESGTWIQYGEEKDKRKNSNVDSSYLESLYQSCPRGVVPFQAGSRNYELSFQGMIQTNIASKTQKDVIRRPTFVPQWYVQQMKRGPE

Target: wild-type KHNYN-GFP (human) (UniProt O15037)
Experiment: co-IP; anti-GFP antibody and Protein G Dynabeads on post-nuclear lysates of HeLa cells stably expressing KHNYN-GFP or mutants; lysis in 0.5% NP-40, 150 mM KCl, 10 mM HEPES pH 7.5, 3 mM MgCl2; 4°C; blotted for GFP and endogenous ZAP; the paper notes that the interaction could occur post-lysis

Question: “ZAP-L (zinc finger antiviral protein, long isoform) (from UniProt Q7Z2W4-1 1-902)” was tested. Which binding did it give?
Answer: binds

Question: Which binding does the source give for “ZAP-S (zinc finger antiviral protein, short isoform) (from UniProt Q7Z2W4-2 1-699)” here?
Answer: binds weakly
